Assay results published in paper PMC4686857.
These are yes or no findings as the source states them, for the method shown. Binding seen in cells or lysates may run through a third protein.

Protein sequences, listed by entry. Tags and fused reporters are not part of them. Lines headed by an entry give the natural chain unless they say otherwise; changes in a name come on top. Chains listed by the source or under a name are the forms on record and can include a tag or linker.
UniProt P21333: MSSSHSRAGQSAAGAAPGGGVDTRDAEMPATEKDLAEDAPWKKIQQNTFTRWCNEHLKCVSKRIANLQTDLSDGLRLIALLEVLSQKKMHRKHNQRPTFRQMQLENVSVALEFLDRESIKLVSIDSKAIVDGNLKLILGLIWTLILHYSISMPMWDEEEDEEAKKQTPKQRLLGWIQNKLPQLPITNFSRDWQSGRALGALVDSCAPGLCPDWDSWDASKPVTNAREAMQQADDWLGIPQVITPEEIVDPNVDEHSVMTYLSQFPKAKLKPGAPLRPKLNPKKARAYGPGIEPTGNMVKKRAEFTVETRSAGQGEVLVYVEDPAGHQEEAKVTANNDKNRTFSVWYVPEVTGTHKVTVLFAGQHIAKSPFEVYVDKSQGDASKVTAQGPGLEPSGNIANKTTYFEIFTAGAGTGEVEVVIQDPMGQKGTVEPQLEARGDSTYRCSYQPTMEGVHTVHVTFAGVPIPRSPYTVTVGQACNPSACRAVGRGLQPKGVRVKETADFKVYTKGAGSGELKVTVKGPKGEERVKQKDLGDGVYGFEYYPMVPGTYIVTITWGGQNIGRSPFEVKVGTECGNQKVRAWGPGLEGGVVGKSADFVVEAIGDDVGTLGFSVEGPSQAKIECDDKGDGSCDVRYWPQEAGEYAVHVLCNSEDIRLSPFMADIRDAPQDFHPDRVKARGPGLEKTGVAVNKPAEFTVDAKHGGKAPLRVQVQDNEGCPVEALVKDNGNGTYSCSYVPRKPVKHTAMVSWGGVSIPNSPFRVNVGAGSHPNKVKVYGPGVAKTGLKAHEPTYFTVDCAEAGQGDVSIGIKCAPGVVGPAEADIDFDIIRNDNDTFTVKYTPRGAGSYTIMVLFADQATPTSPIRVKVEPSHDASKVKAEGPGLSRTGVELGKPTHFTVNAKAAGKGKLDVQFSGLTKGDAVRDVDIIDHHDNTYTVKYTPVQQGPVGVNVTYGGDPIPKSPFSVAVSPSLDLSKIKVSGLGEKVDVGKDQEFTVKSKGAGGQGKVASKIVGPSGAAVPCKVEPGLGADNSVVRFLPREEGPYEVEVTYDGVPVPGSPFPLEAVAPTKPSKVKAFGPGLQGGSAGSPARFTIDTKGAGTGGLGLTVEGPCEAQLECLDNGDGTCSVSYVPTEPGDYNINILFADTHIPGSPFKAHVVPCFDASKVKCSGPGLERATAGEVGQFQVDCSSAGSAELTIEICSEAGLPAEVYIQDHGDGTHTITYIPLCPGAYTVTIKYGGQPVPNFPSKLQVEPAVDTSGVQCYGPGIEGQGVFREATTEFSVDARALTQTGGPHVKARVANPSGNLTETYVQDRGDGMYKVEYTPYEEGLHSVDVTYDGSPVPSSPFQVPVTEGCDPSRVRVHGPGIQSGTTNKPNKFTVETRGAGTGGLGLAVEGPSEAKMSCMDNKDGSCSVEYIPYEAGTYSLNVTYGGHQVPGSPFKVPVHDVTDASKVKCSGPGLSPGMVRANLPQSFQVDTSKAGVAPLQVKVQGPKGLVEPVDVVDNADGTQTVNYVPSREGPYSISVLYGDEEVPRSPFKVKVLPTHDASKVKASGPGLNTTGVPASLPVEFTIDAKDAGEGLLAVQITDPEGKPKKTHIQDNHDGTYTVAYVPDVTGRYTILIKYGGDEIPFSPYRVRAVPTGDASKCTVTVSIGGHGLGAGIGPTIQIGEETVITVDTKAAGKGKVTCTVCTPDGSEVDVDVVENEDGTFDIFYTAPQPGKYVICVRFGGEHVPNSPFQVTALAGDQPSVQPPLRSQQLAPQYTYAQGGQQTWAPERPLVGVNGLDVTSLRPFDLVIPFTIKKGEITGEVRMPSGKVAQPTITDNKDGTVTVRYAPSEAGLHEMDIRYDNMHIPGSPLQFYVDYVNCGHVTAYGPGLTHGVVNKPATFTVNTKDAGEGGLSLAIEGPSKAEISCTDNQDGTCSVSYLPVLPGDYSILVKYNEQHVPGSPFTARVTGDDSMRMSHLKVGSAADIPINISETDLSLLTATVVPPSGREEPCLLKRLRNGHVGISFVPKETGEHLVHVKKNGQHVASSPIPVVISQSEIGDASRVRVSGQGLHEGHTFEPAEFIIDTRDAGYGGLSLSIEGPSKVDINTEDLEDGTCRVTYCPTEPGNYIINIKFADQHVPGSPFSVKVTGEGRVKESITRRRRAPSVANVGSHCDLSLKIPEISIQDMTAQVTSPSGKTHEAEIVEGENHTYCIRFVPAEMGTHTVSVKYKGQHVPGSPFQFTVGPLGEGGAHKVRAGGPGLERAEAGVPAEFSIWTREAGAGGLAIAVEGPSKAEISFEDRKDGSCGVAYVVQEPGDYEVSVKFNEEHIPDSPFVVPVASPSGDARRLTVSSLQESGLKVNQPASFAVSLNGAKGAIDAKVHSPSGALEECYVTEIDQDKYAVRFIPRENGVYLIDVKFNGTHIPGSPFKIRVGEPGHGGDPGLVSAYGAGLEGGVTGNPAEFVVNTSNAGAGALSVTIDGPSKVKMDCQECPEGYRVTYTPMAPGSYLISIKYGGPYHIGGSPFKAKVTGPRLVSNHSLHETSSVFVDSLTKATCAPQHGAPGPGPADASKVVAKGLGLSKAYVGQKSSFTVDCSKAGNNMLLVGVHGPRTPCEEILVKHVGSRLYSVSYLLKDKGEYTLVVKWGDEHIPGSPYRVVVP
UniProt P62834: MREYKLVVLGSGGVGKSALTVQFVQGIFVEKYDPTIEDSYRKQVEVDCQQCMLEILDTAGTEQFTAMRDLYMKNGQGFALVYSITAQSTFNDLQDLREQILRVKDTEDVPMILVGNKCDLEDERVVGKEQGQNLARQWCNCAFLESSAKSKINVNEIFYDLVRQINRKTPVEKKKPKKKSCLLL
T7-tagged Rap1V12 (constitutively active mutant of human Rap1a) (P62834, form named): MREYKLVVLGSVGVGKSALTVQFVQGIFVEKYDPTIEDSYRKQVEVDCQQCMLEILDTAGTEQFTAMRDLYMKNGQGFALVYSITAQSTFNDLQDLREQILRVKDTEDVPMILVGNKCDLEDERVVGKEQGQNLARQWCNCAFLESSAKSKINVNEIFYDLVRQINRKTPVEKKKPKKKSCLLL

Molecular target: Halo-tagged FLNa lacking repeat 3 (Δ3) (UniProt P21333)
Test: pull-down; lysates of COS cells transfected with Halo-FLNa (wild type or deletion mutants) and T7-Rap1V12 or N17, in one panel also αL and mRFP-β; precipitated with HaloLink resin; immunoblotted with anti-T7, Halo, mRFP, αL

- binding: no binding
Substance: T7-tagged Rap1V12 (constitutively active mutant of human Rap1a) (from UniProt P62834 1-184)
